Source: patent publication US11753447B2 (priority 2020, dated 2023)

Assay: general procedure: Fmoc solid-phase peptide synthesis; Rink amide AM resin; HCTU; HATU/HOAt; HBTU/HOBt for cyclisation
Conditions: whole synthesis, TFA salt

H2N-K(Dabcyl)-TSAVLQSGFRKM-E(EDANS)-NH2
isolated mass: 42 mg | isolated yield (based on resin loading, scale of the general procedure 300 mg resin): 12.6%
